Our source for the binding values is doi:10.1101/2025.05.13.653717.

Amino acid sequences for entries named in this document (tags omitted).
UniProt P26040: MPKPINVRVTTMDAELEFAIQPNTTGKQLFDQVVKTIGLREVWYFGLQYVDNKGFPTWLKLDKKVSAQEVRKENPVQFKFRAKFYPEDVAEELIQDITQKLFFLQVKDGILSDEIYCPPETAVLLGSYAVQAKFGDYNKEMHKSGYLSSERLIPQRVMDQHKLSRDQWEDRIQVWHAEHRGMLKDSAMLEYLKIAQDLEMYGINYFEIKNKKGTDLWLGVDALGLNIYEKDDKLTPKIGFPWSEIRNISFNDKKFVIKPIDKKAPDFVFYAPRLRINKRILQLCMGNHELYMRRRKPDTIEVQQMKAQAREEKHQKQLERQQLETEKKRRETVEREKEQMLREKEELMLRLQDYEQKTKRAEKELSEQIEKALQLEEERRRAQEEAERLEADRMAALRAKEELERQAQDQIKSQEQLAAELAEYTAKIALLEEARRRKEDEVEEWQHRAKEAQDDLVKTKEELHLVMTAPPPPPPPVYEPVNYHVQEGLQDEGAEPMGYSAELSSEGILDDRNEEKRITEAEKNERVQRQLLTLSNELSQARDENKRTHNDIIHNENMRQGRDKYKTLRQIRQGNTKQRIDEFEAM

This experiment concerns the target T1, Phosphatase and Actin Regulator 4 (Phactr4) (mouse (endogenous in murine cells)) (UniProt Q501J7).
T1 sequence: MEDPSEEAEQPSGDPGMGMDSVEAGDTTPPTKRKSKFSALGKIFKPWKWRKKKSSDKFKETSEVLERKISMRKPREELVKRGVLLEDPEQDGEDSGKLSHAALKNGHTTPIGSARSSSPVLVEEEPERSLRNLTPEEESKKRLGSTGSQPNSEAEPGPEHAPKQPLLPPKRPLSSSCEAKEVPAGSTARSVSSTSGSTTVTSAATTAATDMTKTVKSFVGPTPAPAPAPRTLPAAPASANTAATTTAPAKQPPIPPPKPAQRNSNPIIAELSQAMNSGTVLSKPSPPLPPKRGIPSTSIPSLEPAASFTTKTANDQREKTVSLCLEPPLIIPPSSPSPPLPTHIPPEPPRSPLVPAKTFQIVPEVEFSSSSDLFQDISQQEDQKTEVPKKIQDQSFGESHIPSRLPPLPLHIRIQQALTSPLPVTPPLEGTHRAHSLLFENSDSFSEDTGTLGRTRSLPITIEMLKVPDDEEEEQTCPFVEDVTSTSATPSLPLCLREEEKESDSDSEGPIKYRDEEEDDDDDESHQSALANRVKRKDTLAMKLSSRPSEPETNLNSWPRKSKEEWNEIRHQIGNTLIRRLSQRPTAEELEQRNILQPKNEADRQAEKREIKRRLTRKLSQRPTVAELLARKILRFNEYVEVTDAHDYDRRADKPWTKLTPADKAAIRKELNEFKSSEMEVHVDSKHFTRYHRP
Briefly: proximity ligation; proximity ligation assay of ezrin and Phactr4 in cells, without and with Arp2/3 inhibition (proximity not affected).

These are yes or no findings as the source states them, for the method shown. Binding seen in cells or lysates may run through a third protein. Some results given as binding are weak or reduced against the parent protein; the word gives no strength.

With ezrin (from UniProt P26040 1-586), the binding entry is given as “binds”.
